PubChem BioAssay AID1159508 – Drosophila RNAi Screening Center | 2015
In all, the deposit lists 812 reagents; below is an unselected part. 18 of all reagents (2.2%) count as active. 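Calls include both increased and decreased ATP; roughly one in four reagents has no third replicate value.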 A number with no mark means an inactive call. Names joined by + are all predicted targets of the reagent. Not all columns of the deposit are shown. Not given: the amount of reagent.

Purpose: 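Overall cell fitness after RNAi as a quality check of the library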
Cell system: Drosophila S2R+ cells
Knock-down reagent: long dsRNA against Drosophila genes
Timing: 5 days
Measurement: 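Total ATP per well measured by luciferase luminescence after 5 days, expressed as z-scores for each replicate and as their average across up to three replicates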
Direction: mean ATP z-score: higher = more total ATP luminescence
Call rule: In these data the active calls have mean ATP z-score at about -2 or lower, or at about 2 or higher
Meaning of the calls: active = strong ATP change (up or down); inactive = no strong ATP change

mean ATP z-score, by target gene and reagent
eIF3j: DRSC06107 -0.778; DRSC33393 -0.488
tra2: DRSC07708 -0.348; DRSC29704 -0.481
Tis11: DRSC23110 -0.344; DRSC34943 1.16
eIF4H1: DRSC20276 0.0825; DRSC37291 0.828
Hmu: DRSC28454 0.466; DRSC41044 0.471
Fib: DRSC04614 0.0837; DRSC35738 -0.437
La: DRSC03358 -0.0492; DRSC37580 -0.299
Son: DRSC16400 0.383; DRSC42695 0.679
CG11109: DRSC11633 1.17; DRSC42690 0.53
CG17768 + LSm-4: DRSC02845 -0.247; DRSC42662 -0.997; DRSC42714 -0.248
CG10803: DRSC17763 0.272; DRSC26282 -0.735
orb2 + CG43783: DRSC10540 -0.825; DRSC10542 -0.0201; DRSC25697 0.296; DRSC42724 0.27
elav: DRSC18772 1.27; DRSC42719 -0.713
Polr2G: DRSC16068 0.868; DRSC31810 1.13
bol: DRSC11329 0.823; DRSC26869 -0.159
CG7878: DRSC16330 -0.239; DRSC23990 -0.541
Rbp1: DRSC16817 -0.39; DRSC42721 0.104
RluA-2: DRSC02939 0.525; DRSC42256 0.753
Cpsf6: DRSC10781 0.715; DRSC34893 2.45 (active)
CG7879: DRSC25308 0.0819; DRSC40897 -0.834
RNaseX25: DRSC29835 0.777; DRSC42384 -0.383
CR33317: DRSC02653 0.335
Larp7: DRSC27687 -0.739; DRSC35881 0.68
Ude: DRSC15324 0.0307; DRSC42704 -0.12
CG42259: DRSC36038 0.499; DRSC40602 -0.538
CG11726: DRSC09858 -0.432; DRSC42687 0.445
barc: DRSC11792 -1.02; DRSC35410 0.0645
pea: DRSC29708 0.0025; DRSC31799 -0.198
CG11123: DRSC06040 -0.171; DRSC28420 -0.0809
Rrp45: DRSC20198 -0.583; DRSC29319 -1.02
fus: DRSC05569 0.673; DRSC07107 0.126
Sxl: DRSC21490 -0.672; DRSC28896 0.67
Saf-B: DRSC16167 -1.58; DRSC28393 -0.959
Pop4: DRSC10955 -0.187; DRSC29825 1.7
cocoon: DRSC10916 -0.828; DRSC28623 -0.0719
Gar1: DRSC25331 0.497; DRSC35313 -0.182
qkr54B: DRSC07670 0.232; DRSC24863 -1.14
